# Experimental data reported in patent US4173539A, “Cationic surfactant compositions” (Lever Brothers Company, priority 1977, dated 1979).
# For at least one compound, name, drawing or mass did not settle the structure.
# Assay: Storage of aqueous concentrates of quaternary ammonium salts
# Type: physicochemical
# Settings: for instance 6% by weight, ambient temperatures
smiles,measurement,value
CCCCCCCCCCCCCCCC[n+]1ccccc1 [cetylpyridinium bromide],behaviour of aqueous concentrate on storage,tend to separate into two layers
